The source of these data is PMC7712783.

By UniProt entry, the sequences of proteins in these tests, tags left out.
UniProt Q8N884: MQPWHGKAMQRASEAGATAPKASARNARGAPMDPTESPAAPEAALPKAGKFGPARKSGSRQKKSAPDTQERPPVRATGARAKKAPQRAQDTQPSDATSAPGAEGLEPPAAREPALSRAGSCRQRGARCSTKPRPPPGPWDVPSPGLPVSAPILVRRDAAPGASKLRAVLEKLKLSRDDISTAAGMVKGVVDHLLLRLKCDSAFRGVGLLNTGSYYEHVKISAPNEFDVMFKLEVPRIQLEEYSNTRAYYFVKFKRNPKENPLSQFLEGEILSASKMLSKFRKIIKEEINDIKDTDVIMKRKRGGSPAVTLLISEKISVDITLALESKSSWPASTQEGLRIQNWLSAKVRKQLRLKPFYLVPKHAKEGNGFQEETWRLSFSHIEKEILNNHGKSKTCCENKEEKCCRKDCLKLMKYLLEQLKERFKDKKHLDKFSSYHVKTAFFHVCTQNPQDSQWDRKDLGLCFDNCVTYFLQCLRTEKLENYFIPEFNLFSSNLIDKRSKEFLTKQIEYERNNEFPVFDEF

In experiment [1] the target is cyclic GMP-AMP (cGAMP) synthase (cGAS), endogenous in THP-1 cells (human (endogenous in THP-1)) (UniProt Q8N884). The experiment is described as follows: co-IP.
Experiment [2] has as its target cGAS of the co-immunoprecipitation in VSV-infected cells (Supplementary Fig. 4a) (human) (UniProt Q8N884). As to the kind of experiment: co-IP.

No constants are given. Whether binding was seen depends on the method and setting. Binding seen in cells or lysates may run through a third protein. Some binding calls cover weakened binding; strength is not graded here.

As for “DNA-dependent protein kinase catalytic subunit (DNA-PKcs) (from UniProt P78527 1-4128)”, the binding result in experiment [1] and in experiment [2] was “binds” in each case.

On to Ku70 (from UniProt P12956 1-609), for which the binding result in experiment [1] and in experiment [2] was “binds” each time.

Regarding Ku80 (from UniProt P13010 1-732), the binding result in experiment [1] and in experiment [2] was “binds” throughout.
